{"source": "patent US20230242663A1", "about": "“COMBINATION THERAPY COMPRISING ANTI-CD137 ANTIBODIES” (Adagene PTE. LTD., priority 2020, published 2023)", "type_in_all_cases": "cell-based", "key": {"[1]": {"tested_on": "HUT78 human TCL cells", "experiment": "Time-dependent effects on CD137L protein surface expression (flow cytometry)", "conditions": "0.003 μM Romidepsin or 0.01 μM Bortezomib, 2, 6, 16 or 24 hours", "experimental": "HUT78 cells, cultured in 6-well plates in RPMI-1640 medium containing 20% FBS, were treated with 0.003 μM Romidepsin or 0.01 μM Bortezonib for 2, 6, 16, or 24 hours. Cells (1×103) were washed twice in DPBS, stained with PE-conjugated Isotype Control (Biolegend catalog #400112) and anti-human-CD137L (Biolegend catalog #311504) antibodies (1 μL antibody in 100 μL DPBS) at 4° C. for 30 minutes, washed twice in DPBS, and resuspended in 100 μL DPBS for flow cytometry analysis."}, "[2]": {"tested_on": "purified human T cells", "experiment": "Cell viability of purified human T cells (CellTiter-Glo)", "conditions": "dose range, 24 hours", "experimental": "(§1) T cells were purified from human PBMCs (>95% purity, data not shown), cultured in 96-well plates in RPMI-1640 medium containing 10% fetal bovine serum (FBS), and treated with a dose range of Romidepsin (0-0.1 μM), Bortezomib (0-1.0 μM), or Chidamide (0-3.0 μM) for 24 hours. The CellTiter-Glo assay (Promega) was used to assess cell viability according to the manufacturer's instructions."}, "[3]": {"tested_on": "HUT78 human TCL cells", "experiment": "mRNA expression, QuantiGene Plex assay, HUT78", "conditions": "dose range, 24 hours", "experimental": "(§2) HUT102, HUT78, and SU-DHL1 cells, cultured in 96-well plates, were treated with a dose range of Romidepsin (0-0.1 μM), Bortezomib (0-1.0 μM), Belinostat (0-10.0 μM), or Vincristine (0-0.03 μM) for 24 hours. Cells were lysed with Lysis Buffer and cell lysates were used for the QuantiGene Plex assay (7-gene multiplex (CD80, CD86, CD274, CD137, CD137L, HPRT1, GAPDH))"}, "[4]": {"tested_on": "HUT78 human TCL cells", "experiment": "Dose-dependent effects on CD137L protein surface expression (flow cytometry)", "conditions": "dose range, 24 hours", "experimental": "HUT78 cells, cultured in 6-well plates in RPMI-1640 medium containing 20% fetal bovine serum (FBS), were treated with a dose range of Romidepsin (0-0.1 μM), Bortezomib (0-1.0 μM), Belinostat (0-1.0 μM), Chidamide (0-3.0 μM), or Vincristine (0-0.03 μM) for 24 hours. Cells (1×10^5) were washed twice in Dulbecco's Phosphate Buffered Saline (DPBS), stained with either Phycoerythrin (PE)-conjugated Isotype Control (Biolegend catalog #400112) and anti-human-CD137L (Biolegend catalog #311504) antibodies (1 μL antibody in 100 μL DPBS, FIG. 5A-5E) or PE-Cy7-conjugated Isotype Control (Thermofisher catalog #25-4714-80) and anti-human-CD137L (Thermofisher catalog #25-5906-42) antibodies (1 μL antibody in 100 μL DPBS, FIG. 5F-5H) at 4° C. for 30 minutes, washed twice in DPBS, and resuspended in 100 μL DPBS for flow cytometry analysis."}, "[5]": {"tested_on": "HUT78 human TCL cells", "experiment": "Cell viability of HUT78 cells (CellTiter-Glo)", "conditions": "dose range, 24 hours", "experimental": "as §1, with “HUT78 cells,” for “T cells were purified from human PBMCs (>95% purity, data not shown),”, “20%” for “10%”, “were” for “and”"}, "[6]": {"tested_on": "SU-DHL1 human TCL cells", "experiment": "mRNA expression, QuantiGene Plex assay, SU-DHL1", "conditions": "dose range, 24 hours", "experimental": "as §2"}, "[7]": {"tested_on": "HUT102 human TCL cells", "experiment": "mRNA expression, QuantiGene Plex assay, HUT102", "conditions": "dose range, 24 hours", "experimental": "as §2"}}, "note": "At least one structure is not confirmed: it was looked up by name or label, or the drawing left a doubt.", "data": [{"smiles": "C/C=C1\\NC(=O)[C@H]2CSSCC/C=C/[C@H](CC(=O)N[C@H](C(C)C)C(=O)N2)OC(=O)[C@H](C(C)C)NC1=O", "note": "[Romidepsin, romidepsin]", "values": [{"measurement": "CD137L protein surface expression over time", "setting": "[1]", "value": "time-dependent upregulation"}, {"measurement": "viability of purified human T cells", "setting": "[2]", "value": "minimal or no effect"}, {"measurement": "CD137L mRNA expression", "setting": "[3]", "value": "dose-dependent upregulation"}, {"measurement": "CD137L protein surface expression", "setting": "[4]", "value": "dose-dependent upregulation"}, {"measurement": "cell viability of HUT78 human TCL cells", "setting": "[5]", "value": "inhibited cell viability"}, {"measurement": "CD137L mRNA expression", "setting": "[6]", "value": "dose-dependent upregulation"}, {"measurement": "CD137 mRNA expression", "setting": "[6]", "value": "induced"}, {"measurement": "CD137L mRNA expression", "setting": "[7]", "value": "dose-dependent upregulation"}, {"measurement": "CD137 mRNA expression", "setting": "[7]", "value": "induced"}, {"measurement": "CD274 mRNA expression", "setting": "[7]", "value": "induced"}]}]}
